Measurements reported in the supplement of paper PMC10849652.
Some of the results follow.

Amino acid sequences for entries named in this document (tags omitted). A change or cut given only in a name is not applied to a line headed by its entry.
UniProt Q9BXL7: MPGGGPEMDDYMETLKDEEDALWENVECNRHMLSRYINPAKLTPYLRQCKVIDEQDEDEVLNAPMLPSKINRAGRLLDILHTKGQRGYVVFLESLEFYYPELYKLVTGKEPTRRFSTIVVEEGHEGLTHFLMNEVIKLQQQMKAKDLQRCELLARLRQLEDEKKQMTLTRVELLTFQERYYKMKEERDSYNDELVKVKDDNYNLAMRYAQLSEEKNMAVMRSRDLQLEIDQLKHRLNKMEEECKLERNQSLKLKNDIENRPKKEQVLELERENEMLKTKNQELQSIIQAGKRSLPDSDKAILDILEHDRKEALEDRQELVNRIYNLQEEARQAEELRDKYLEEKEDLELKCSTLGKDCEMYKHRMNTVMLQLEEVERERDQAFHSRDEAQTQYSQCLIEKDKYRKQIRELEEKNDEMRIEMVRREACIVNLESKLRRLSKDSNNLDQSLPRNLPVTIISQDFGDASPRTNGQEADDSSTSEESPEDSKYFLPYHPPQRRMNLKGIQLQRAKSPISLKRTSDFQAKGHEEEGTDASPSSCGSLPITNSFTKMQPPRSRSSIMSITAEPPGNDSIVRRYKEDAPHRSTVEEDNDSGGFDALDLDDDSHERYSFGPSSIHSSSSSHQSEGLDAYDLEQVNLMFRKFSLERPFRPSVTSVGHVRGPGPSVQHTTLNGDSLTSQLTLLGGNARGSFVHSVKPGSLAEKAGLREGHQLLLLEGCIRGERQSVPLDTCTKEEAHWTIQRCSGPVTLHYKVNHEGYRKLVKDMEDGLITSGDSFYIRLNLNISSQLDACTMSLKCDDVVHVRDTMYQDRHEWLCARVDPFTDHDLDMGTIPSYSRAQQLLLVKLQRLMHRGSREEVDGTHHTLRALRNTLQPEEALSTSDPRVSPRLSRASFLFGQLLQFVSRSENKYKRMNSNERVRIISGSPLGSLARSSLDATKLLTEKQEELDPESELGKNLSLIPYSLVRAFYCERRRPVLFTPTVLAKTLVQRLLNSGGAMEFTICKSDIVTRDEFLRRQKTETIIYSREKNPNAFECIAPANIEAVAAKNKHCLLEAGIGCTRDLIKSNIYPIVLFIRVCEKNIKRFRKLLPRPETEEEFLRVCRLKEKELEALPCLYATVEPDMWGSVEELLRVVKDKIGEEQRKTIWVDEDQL
UniProt Q8N8R5: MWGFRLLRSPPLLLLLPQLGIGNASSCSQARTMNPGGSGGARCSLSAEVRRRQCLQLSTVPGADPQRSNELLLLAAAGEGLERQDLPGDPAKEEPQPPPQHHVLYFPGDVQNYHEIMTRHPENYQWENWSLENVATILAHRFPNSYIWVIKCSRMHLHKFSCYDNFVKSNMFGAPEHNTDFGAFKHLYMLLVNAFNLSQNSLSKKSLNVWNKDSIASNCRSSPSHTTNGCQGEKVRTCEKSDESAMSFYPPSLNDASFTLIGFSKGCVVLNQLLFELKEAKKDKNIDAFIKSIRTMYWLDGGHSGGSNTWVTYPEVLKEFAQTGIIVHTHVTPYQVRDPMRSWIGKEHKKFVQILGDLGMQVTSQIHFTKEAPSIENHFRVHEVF
UniProt Q9H0W9: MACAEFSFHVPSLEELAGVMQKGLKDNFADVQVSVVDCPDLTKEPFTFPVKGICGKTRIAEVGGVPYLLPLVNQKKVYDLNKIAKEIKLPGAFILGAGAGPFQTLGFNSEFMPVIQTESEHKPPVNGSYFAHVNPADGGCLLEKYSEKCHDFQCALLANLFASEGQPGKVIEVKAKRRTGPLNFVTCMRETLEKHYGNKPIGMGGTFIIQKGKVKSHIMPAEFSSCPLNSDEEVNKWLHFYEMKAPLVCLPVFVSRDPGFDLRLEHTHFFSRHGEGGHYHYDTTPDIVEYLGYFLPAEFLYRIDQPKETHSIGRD
UniProt Q9P1Z2: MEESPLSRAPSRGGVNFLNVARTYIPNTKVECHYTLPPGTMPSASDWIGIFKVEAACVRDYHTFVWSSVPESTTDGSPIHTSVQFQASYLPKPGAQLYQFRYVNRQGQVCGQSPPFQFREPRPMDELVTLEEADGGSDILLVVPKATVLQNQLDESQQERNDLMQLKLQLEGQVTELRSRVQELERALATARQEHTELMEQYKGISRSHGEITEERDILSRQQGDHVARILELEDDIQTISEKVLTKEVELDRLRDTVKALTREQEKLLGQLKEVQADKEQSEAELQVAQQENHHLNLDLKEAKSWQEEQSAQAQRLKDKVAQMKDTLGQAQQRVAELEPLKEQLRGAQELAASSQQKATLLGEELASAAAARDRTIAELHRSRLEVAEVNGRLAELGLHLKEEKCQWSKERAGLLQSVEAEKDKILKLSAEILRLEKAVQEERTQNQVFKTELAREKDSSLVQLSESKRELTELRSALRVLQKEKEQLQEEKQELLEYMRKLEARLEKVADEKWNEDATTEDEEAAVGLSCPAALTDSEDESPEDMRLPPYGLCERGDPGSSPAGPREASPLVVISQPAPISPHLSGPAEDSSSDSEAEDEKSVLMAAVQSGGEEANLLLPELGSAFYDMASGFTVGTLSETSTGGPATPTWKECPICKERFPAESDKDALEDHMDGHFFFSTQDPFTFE
UniProt P05937: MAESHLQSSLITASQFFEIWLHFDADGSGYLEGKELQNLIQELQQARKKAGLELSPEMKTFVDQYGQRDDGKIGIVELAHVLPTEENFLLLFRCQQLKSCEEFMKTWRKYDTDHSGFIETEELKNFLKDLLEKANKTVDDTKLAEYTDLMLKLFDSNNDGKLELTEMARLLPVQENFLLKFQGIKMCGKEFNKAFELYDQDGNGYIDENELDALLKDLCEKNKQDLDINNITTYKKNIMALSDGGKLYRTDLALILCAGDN
UniProt Q8TCD1: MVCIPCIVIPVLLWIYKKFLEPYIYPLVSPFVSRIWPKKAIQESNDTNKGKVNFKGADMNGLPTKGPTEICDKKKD
UniProt P35219: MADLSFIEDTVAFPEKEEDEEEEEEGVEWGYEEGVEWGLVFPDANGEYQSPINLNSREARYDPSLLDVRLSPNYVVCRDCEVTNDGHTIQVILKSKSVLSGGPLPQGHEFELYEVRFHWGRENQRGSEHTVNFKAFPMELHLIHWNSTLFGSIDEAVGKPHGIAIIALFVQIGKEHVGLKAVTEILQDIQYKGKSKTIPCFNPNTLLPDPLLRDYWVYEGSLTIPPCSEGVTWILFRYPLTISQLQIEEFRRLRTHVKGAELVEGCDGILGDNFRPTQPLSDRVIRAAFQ
UniProt O95873: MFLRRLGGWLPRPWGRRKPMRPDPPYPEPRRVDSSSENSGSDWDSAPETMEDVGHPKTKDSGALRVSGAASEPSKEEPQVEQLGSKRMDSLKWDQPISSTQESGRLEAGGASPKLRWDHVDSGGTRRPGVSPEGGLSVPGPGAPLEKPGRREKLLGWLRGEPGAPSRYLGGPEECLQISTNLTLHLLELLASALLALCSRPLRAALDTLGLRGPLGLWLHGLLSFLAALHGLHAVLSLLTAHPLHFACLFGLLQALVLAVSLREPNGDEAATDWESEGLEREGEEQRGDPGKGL

Key:
Assay in all cases: log2 fold change, soluble protein after heating vs DMSO (PISA); higher = thermal stabilisation; K562 lysate, 10 uM; active = over 0.2 and 3.5 SD of the protein, either way, in both replicates (recomputed)
erlotinib = compound: C#Cc1cccc(Nc2ncnc3cc(OCCOC)c(OCCOC)cc23)c1 [erlotinib]
Outline: (§1)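 K562 pellets were dounce-homogenised in PBS pH 7.4 containing 1 mM MgCl2, and the crude extract, at 1 mg/mL protein, was exposed to 10 μM compound for 30 min. Aliquots were heated for 3 min across 48°C-58°C, pooled, brought to 0.5% NP-40 at 4°C and spun at 21,000xg for 90 min, with the supernatant taken as soluble protein. TMTpro 16plex LC-MS/MS with equalised channel sums quantified that protein. Values are log-two fold changes in thermal stability relative to solvent controls, taken from duplicates.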

[1] = compound: C/C(=N\NC(=O)C1=CC(=CC=C1)S(=O)(=O)N2CCOCC2)/C3=C(C=CC(=C3)Cl)O
Outline: as §1

[2] = compound: C1=CC(=CC=C1C2=NC3=C(N2)C=C(C=C3)C(=O)N)OC4=CC=C(C=C4)Cl
Outline: as §1

[3] = compound: C1=CC2=C(C=CC(=C2)/C=C\3/C(=O)NC(=NCC4=CC=CS4)S3)N=C1
Outline: as §1

[4] = compound: C1=CC2=NC=CN=C2C=C1/C=C/3\C(=O)NC(=O)S3
Outline: as §1

[5] = compound: C1=CC=C(C=C1)C2=NC(=C(N2)C3=CC=NC=C3)C4=CC(=C(C=C4)Cl)O
Outline: as §1

[6] = compound: C1=CC=C2C(=C1)C3=NNC4=CC=CC(=C43)C2=O
Outline: as §1

[7] = compound: C1CCN(C1)C(=O)NC2=CC=CC(=C2)NC3=NC=C(C(=N3)NCCC4=CN=CN4)Br
Outline: as §1

[8] = compound: C1CN(CCC1(CC2=CC=C(C=C2)Cl)N)C3=NC=NC4=C3C=CN4
Outline: as §1

IRAK-1-4 Inhibitor I = compound: C1COCCN1CCN2C3=CC=CC=C3N=C2NC(=O)C4=CC(=CC=C4)[N+](=O)[O-] [IRAK-1-4 Inhibitor I]
Outline: as §1

ibrutinib = compound: C=CC(=O)N1CCC[C@@H](n2nc(-c3ccc(Oc4ccccc4)cc3)c3c(N)ncnc32)C1 [ibrutinib]
Outline: as §1

[9] = compound: CC(=O)c1cnc2ccc(-c3cc(Cl)c(O)c(Cl)c3)nc2c1N[C@H]1CC[C@H](CN(C)C)CC1
Outline: as §1

ralimetinib = compound: CC(C)(C)Cn1c(N)nc2ccc(-c3[nH]c(C(C)(C)C)nc3-c3ccc(F)cc3)nc21 [ralimetinib]
Outline: as §1

[10] = compound: CC(C)(O)CC(=O)NCCn1ccc2ncnc(Nc3ccc(Oc4cccc(C(F)(F)F)c4)c(Cl)c3)c21
Outline: as §1

[11] = compound: CC(C)C1=C2N=C(C=C(N2N=C1)NCC3=CC=CC=C3)NCCCCCCN
Outline: as §1

[12] = compound: CC1=C(C(CC(=O)N1)C2=CC=C(C=C2)C(F)(F)F)C(=O)NC3=C(C=C4C(=C3)C=NN4)F
Outline: as §1

[13] = compound: CC1=C(C2=C(C=C1)C(=O)C3=CC=CC=C3N2CCCN)C
Outline: as §1

[14] = compound: CC1=C(C=C(C=C1)NC(=O)C2=CC(=CC=C2)C(C)(C)C#N)NC3=CC4=C(C=C3)N=CN(C4=O)C
Outline: as §1

[15] = compound: CC1=C(C=C(C=C1)NC(=O)C2=CC(=CC=C2)N(C)C)NC(=O)C3=CC=C(C=C3)O
Outline: as §1

[16] = compound: CC1=CC=C(C=C1)SC2=C3C=C(SC3=CN=C2)C(=O)N
Outline: as §1

Measured: log2 fold change

CARD11 (UniProt Q9BXL7)
inactive: erlotinib -0.03 | [1] -0.051 | [2] 0.016 | [3] 0.061 | [4] -0.168 | [5] -0.048 | [6] -0.022 | [7] -0.042 | [8] 0.013 | IRAK-1-4 Inhibitor I -0.01 | ibrutinib -0.097 | [9] -0.023 | ralimetinib -0.02 | [10] 0.003 | [11] -0.075 | [12] -0.041 | [13] 0.025 | [14] 0.01 | [15] 0.051 | [16] -0.143

C2orf69 (UniProt Q8N8R5)
inactive: erlotinib -0.018 | [1] -0.015 | [2] -0.043 | [3] -0.034 | [4] -0.059 | [5] -0.001 | [6] 0.025 | [7] -0.002 | [8] 0.023 | IRAK-1-4 Inhibitor I -0.021 | ibrutinib 0.002 | [9] 0.004 | ralimetinib 0.077 | [10] -0.031 | [11] -0.017 | [12] -0.09 | [13] 0.006 | [14] -0.007 | [15] 0.064 | [16] -0.048

C11orf54 (UniProt Q9H0W9)
inactive: erlotinib 0.031 | [1] -0.086 | [2] 0.063 | [3] 0.03 | [4] 0.025 | [5] -0.001 | [6] 0.014 | [7] 0.029 | [8] -0.023 | IRAK-1-4 Inhibitor I -0.005 | ibrutinib -0.007 | [9] -0.013 | ralimetinib -0.004 | [10] -0.006 | [11] -0.005 | [12] -0.007 | [13] 0.01 | [14] 0.015 | [15] -0.004 | [16] 0.003

CALCOCO1 (UniProt Q9P1Z2)
inactive: erlotinib -0.014 | [1] 0.775 | [2] -0.061 | [3] 0.013 | [4] -0.048 | [5] 0.048 | [6] -0.032 | [7] -0.038 | [8] 0.044 | IRAK-1-4 Inhibitor I -0.008 | ibrutinib 0.058 | [9] -0.001 | ralimetinib 0.053 | [10] -0.023 | [11] -0.008 | [12] 0.048 | [13] 0.001 | [14] 0.04 | [15] -0.019 | [16] -0.022

CALB1 (UniProt P05937)
inactive: erlotinib -0.012 | [1] -0.022 | [2] 0.015 | [3] -0.009 | [4] -0.06 | [5] 0.007 | [6] -0.011 | [7] 0 | [8] 0.013 | IRAK-1-4 Inhibitor I -0.012 | ibrutinib 0.08 | [9] 0.011 | ralimetinib 0.012 | [10] -0.004 | [11] -0.006 | [12] -0.025 | [13] 0.012 | [14] -0.002 | [15] 0.019 | [16] 0.02

C18orf32 (UniProt Q8TCD1)
inactive: erlotinib 0.089 | [1] 0.126 | [2] 0.009 | [3] -0.06 | [4] -0.026 | [5] 0.011 | [6] 0.003 | [7] -0.049 | [8] -0.032 | IRAK-1-4 Inhibitor I -0.026 | ibrutinib 0.069 | [9] -0.014 | ralimetinib 0.053 | [10] -0.048 | [11] -0.069 | [12] -0.078 | [13] -0.021 | [14] 0.074 | [15] -0.056 | [16] 0.032

CA8 (UniProt P35219)
inactive: erlotinib -0.003 | [1] 0.003 | [2] -0.015 | [3] -0.001 | [4] 0.022 | [5] 0.014 | [6] -0.052 | [7] 0.005 | [8] 0.026 | IRAK-1-4 Inhibitor I 0.031 | ibrutinib 0.038 | [9] -0.006 | ralimetinib 0.026 | [10] -0.002 | [11] 0.019 | [12] 0.02 | [13] -0.004 | [14] 0.065 | [15] -0.029 | [16] 0.011

C6orf47 (UniProt O95873)
inactive: erlotinib 0.002 | [1] 0.053 | [2] 0.052 | [3] 0.001 | [4] 0.001 | [5] -0.034 | [6] 0.091 | [7] 0.031 | [8] 0.106 | IRAK-1-4 Inhibitor I 0.064 | ibrutinib -0.014 | [9] -0.029 | ralimetinib 0.043 | [10] 0.028 | [11] -0.027 | [12] -0.092 | [13] -0.037 | [14] -0.011 | [15] -0.032 | [16] 0.031
